Measurements reported in paper PMC9925808.
Results are given in words; binding and its absence hold for the method and conditions named. In cells and extracts the contact can be indirect. Some binding calls cover weakened binding; strength is not graded here. For some assays here: Tags and fused reporters may be left off the sequences shown. Values belong to the binder of their own block, whether it stands above or below them.

Assays:
[1] = molecular target: T1, checkpoint kinase-1 (Chk1) (human (endogenous in MCF-7)) (UniProt O14757); assay: co-IP; reciprocal co-immunoprecipitation of endogenous proteins from MCF-7 lysate; NETN buffer (20 mM Tris-HCl pH 8.0, 100 mM NaCl, 0.5% Nonidet P-40, 1 mM EDTA) with benzonase; 4 °C; Western blotting
T1 sequence: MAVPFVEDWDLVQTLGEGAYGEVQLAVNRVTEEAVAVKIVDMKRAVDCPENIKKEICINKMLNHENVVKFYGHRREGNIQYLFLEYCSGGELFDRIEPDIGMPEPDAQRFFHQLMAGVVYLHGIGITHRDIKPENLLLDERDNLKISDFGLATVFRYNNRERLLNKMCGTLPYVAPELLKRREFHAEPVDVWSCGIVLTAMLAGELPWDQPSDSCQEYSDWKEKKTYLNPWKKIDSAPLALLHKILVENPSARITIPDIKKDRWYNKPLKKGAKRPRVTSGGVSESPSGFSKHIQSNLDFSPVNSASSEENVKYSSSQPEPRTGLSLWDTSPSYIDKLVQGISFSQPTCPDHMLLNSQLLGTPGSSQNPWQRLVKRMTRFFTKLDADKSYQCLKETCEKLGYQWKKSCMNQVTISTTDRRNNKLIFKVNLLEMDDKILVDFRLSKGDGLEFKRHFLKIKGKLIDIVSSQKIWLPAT

HA epitope-tagged Chk1 = molecular target: T2, HA epitope-tagged Chk1 (UniProt O14757); assay: co-IP; HA-Chk1 and Myc-PPP2R2A (WT or mutant) co-transfected into 293T cells, immunoprecipitation, detection with anti-HA and anti-Myc antibodies; NETN buffer, 4 °C
T2 sequence: T1 sequence

binding [1]: binds
B1: PPP2R2A (the B-regulatory subunit of Phosphatase PP2A) (protein, UniProt P63151 1-447)
chain: MAGAGGGNDIQWCFSQVKGAVDDDVAEADIISTVEFNHSGELLATGDKGGRVVIFQQEQENKIQSHSRGEYNVYSTFQSHEPEFDYLKSLEIEEKINKIRWLPQKNAAQFLLSTNDKTIKLWKISERDKRPEGYNLKEEDGRYRDPTTVTTLRVPVFRPMDLMVEASPRRIFANAHTYHINSISINSDYETYLSADDLRINLWHLEITDRSFNIVDIKPANMEELTEVITAAEFHPNSCNTFVYSSSKGTIRLCDMRASALCDRHSKLFEEPEDPSNRSFFSEIISSISDVKFSHSGRYMMTRDYLSVKIWDLNMENRPVETYQVHEYLRSKLCSLYENDCIFDKFECCWNGSDSVVMTGSYNNFFRMFDRNTKRDITLEASRENNKPRTVLKPRKVCASGKRKKDEISVDSLDFNKKILHTAWHPKENIIAVATTNNLYIFQDKVN

binding (HA epitope-tagged Chk1): binds
B2: Myc-PPP2R2A wild-type (protein, UniProt P63151 1-447)
chain: B1 chain
